PubChem BioAssay AID330 (DTP/NCI, 2004)
The list shows only some results of the screen, not a fair sample: it is rich in T/C values a quarter to a half above the control, in often repeated tests (any T/C) and in doses without a T/C. Other doses and runs of a compound stand elsewhere. T/C gives the treated animals as a percentage of the vehicle group. Some entries give survivors of the animals treated and no T/C: the source files T/C as zero there, which appears to mark a toxic dose or a test without result, not a measured value. Some doses without a T/C left all or most animals alive at the check, yet need not have been tolerated: survival well below the control is almost never listed, so the zero probably covers shortened survival too. Survivors were counted at the toxicity check, usually on the fifth day, unless a day is given; later deaths do not show. Schedules are NCI's codes, taken here to give the interval after Q, in days (D) or hours (H), and the number of doses after X. Some doses were run more than once; the values are given in rising order. Marks such as (2×) say how often a value occurs here. Where survival is the endpoint, the PubChem record calls one and a half times the control and up active, and a quarter to a half above the control has no call in these data; cut-offs in other NCI protocols can differ.

Test system: P388 leukemia ip, CD2F1 mice, survival T/C
Assay: NCI In Vivo Anticancer Drug Screen. Data for tumor model P388 Leukemia (intraperitoneal) in CD2F1 (CDF1) mice
Conditions: T/C endpoint: median survival time, higher T/C = longer survival
[1] = dose: 100.0 mg/kg/injection, schedule: Q01DX009 (ip), vehicle: Klucel (hydroxypropylcellulose) (HPC)
[2] = dose: 120.0 mg/kg/injection, schedule: Q01DX005 (ip), vehicle: Klucel (hydroxypropylcellulose) (HPC)
[3] = dose: 200.0 mg/kg/injection, schedule: Q01DX009 (ip), vehicle: saline
[4] = dose: 200.0 mg/kg/injection, schedule: Q01DX005 (ip), vehicle: Klucel (hydroxypropylcellulose) (HPC)
[5] = dose: 120.0 mg/kg/injection, schedule: Q01DX005 (ip), vehicle: saline
[6] = dose: 240.0 mg/kg/injection, schedule: Q01DX005 (ip), vehicle: saline
[7] = dose: 12.5 mg/kg/injection, schedule: Q01DX009 (ip), vehicle: saline
[8] = dose: 240.0 mg/kg/injection, schedule: Q01DX005 (ip), vehicle: Klucel (hydroxypropylcellulose) (HPC)
[9] = dose: 6.25 mg/kg/injection, schedule: Q01DX009 (ip), vehicle: saline
[10] = dose: 240.0 mg/kg/injection, schedule: Q01DX005 (ip), vehicle: saline with Tween-80
[11] = dose: 400.0 mg/kg/injection, schedule: Q01DX001 (ip), vehicle: saline with Tween-80

## OC(CBr)C(O)C(O)C(O)CBr (centres undefined)
dose: 25.0 mg/kg/injection, schedule: Q01DX009 (ip), vehicle: Klucel (hydroxypropylcellulose) (HPC)
  T/C: 126 % of control
dose: 30.0 mg/kg/injection, schedule: Q01DX009 (ip), vehicle: Klucel (hydroxypropylcellulose) (HPC)
  T/C: 135 % of control
dose: 40.0 mg/kg/injection, schedule: Q01DX009 (ip), vehicle: Klucel (hydroxypropylcellulose) (HPC)
  T/C: 148 % of control
dose: 50.0 mg/kg/injection, schedule: Q01DX009 (ip), vehicle: Klucel (hydroxypropylcellulose) (HPC)
  T/C: 137 % of control
dose: 50.0 mg/kg/injection, schedule: Q01DX009 (ip), vehicle: distilled water + Tween-80
  T/C: 135 % of control
dose: 80.0 mg/kg/injection, schedule: Q01DX005 (ip), vehicle: Klucel (hydroxypropylcellulose) (HPC)
  T/C: 134 and 140 % of control
[1]
  T/C: 144 % of control
  survivor count: 3 of 6
dose: 100.0 mg/kg/injection, schedule: Q01DX009 (ip), vehicle: distilled water + Tween-80
  T/C: 144 % of control
[2]
  T/C: 148 % of control
dose: 180.0 mg/kg/injection, schedule: Q01DX005 (ip), vehicle: Klucel (hydroxypropylcellulose) (HPC)
  survivor count: 10 of 10
dose: 200.0 mg/kg/injection, schedule: Q01DX009 (ip), vehicle: Klucel (hydroxypropylcellulose) (HPC)
  T/C: 138 % of control
dose: 200.0 mg/kg/injection, schedule: Q01DX009 (ip), vehicle: distilled water + Tween-80
  T/C: 132 % of control
[3]
  T/C: 148 % of control
dose: 400.0 mg/kg/injection, schedule: Q01DX009 (ip), vehicle: Klucel (hydroxypropylcellulose) (HPC)
  survivor count: 10 of 10
dose: 400.0 mg/kg/injection, schedule: Q01DX009 (ip), vehicle: distilled water + Tween-80
  survivor count: 6 of 6
dose: 400.0 mg/kg/injection, schedule: Q01DX010 (ip), vehicle: saline
  T/C: 127 % of control
dose: 600.0 mg/kg/injection, schedule: Q01DX009 (ip), vehicle: saline with Tween-80
  T/C: 137 % of control
dose: 800.0 mg/kg/injection, schedule: Q01DX009 (ip), vehicle: saline with Tween-80
  T/C: 130 % of control
dose: 1200.0 mg/kg/injection, schedule: Q01DX009 (ip), vehicle: saline with Tween-80
  survivor count: 6 of 10

## CCN(CC)CCC(O)(c1ccc2c(c1)OCO2)c1cc(OC)c(OC)c(OC)c1 (centres undefined)
[4]
  survivor count: 6 of 6

## O=NNc1nc(-c2cccnc2)nc2ccccc12
dose: 20.0 mg/kg/injection, schedule: Q01DX009 (ip), vehicle: water
  survivor count: 6 of 6

## CCC(=N)C(c1ccccc1)(c1ccccc1)C(C)CN(C)C (centres undefined)
dose: 60.0 mg/kg/injection, schedule: Q01DX005 (ip), vehicle: saline
  survivor count: 2 of 6
[5]
  survivor count: 0 of 6
[6]
  survivor count: 0 of 6

## CCOC(=O)C(N)Cc1ccc(N(CCCl)CCCl)cc1 (centres undefined)
[7]
  survivor count: 6 of 6
dose: 25.0 mg/kg/injection, schedule: Q04DX003 (ip), vehicle: saline
  survivor count: 6 of 6
dose: 250.0 micrograms/kg/injection, schedule: Q04DX003 (ip), vehicle: saline
  T/C: 136 % of control

## CC(C)c1cc(C(=O)O)c(O)c(C(C)C)c1.CC(C)c1cc(C(=O)O)c(O)c(C(C)C)c1.[Mn]
[2]
  T/C: 127 % of control
[8]
  survivor count: 0 of 6

## CCCC[P+](CCCC)(CCCC)CC(=O)O
dose: 200.0 mg/kg/injection, schedule: Q01DX009 (ip), vehicle: saline with Tween-80
  survivor count: 1 of 6

## NC(CSC(c1ccccc1)(c1ccccc1)c1ccc(Cl)cc1)C(=O)O (centres undefined)
dose: 100.0 mg/kg/injection, schedule: Q04DX003 (ip), vehicle: saline with Tween-80
  T/C: 140 % of control

## S=P(N1CC1)(N1CC1)N1CC1.[Cl-].[Cl-].[NH2-].[NH2-].[Pt+4]
dose: 3.12 mg/kg/injection, schedule: Q01DX009 (ip), vehicle: saline
  T/C: 126 and 138 % of control
[9]
  T/C: 133 and 140 % of control
  survivor count: 4 of 6
[7]
  survivor count: 3 of 6 and 6 of 6 (2×)
dose: 25.0 mg/kg/injection, schedule: Q01DX009 (ip), vehicle: saline
  survivor count: 2 of 6 and 6 of 6 (2×)

## CCn1c2ccccc2c2cc(NC(=S)NC(=O)c3cccs3)ccc21
dose: 50.0 mg/kg/injection, schedule: Q01DX005 (ip), vehicle: saline with Tween-80
  survivor count: 5 of 5

## COc1ccc(CCNCC(O)c2ccc(C)s2)cc1OC (centres undefined)
[3]
  survivor count: 2 of 6

## O=S1(=O)OCCO1
dose: 50.0 mg/kg/injection, schedule: Q01DX005 (ip), vehicle: saline
  survivor count: 0 of 6
dose: 100.0 mg/kg/injection, schedule: Q01DX005 (ip), vehicle: saline
  survivor count: 0 of 6

## CCOC(=O)C1=C(C(=O)c2ccc(OC)cc2)C(c2ccc(OC)c(OC)c2)C(C(=O)c2ccc(OC)cc2)=C(C(=O)OCC)N1
[10]
  survivor count: 5 of 6

## Cc1cc2cc3c(=O)[nH]c(=O)cc-3n(CC(O)C(O)C(O)CO)c2cc1C (centres undefined)
dose: 200.0 mg/kg/injection, schedule: Q01DX009 (ip), vehicle: other
  survivor count: 6 of 6

## CCN(CC)C(=S)N1C(=O)C2C3CCC(O3)C2C1=O (centres undefined)
dose: 60.0 mg/kg/injection, schedule: Q01DX005 (ip), vehicle: saline with Tween-80
  survivor count: 5 of 6
dose: 120.0 mg/kg/injection, schedule: Q01DX005 (ip), vehicle: saline with Tween-80
  survivor count: 0 of 6
[10]
  survivor count: 0 of 6

## O=C1NC(=O)C2(F)CC3(CCCCC3)C2N1 (centres undefined)
dose: 25.0 mg/kg/injection, schedule: Q01DX001 (ip), vehicle: Klucel (hydroxypropylcellulose) (HPC)
  survivor count: 2 of 6
dose: 50.0 mg/kg/injection, schedule: Q01DX001 (ip), vehicle: Klucel (hydroxypropylcellulose) (HPC)
  survivor count: 0 of 6

## O=c1c2ccccc2sc2cccc(NCCCN3CCN(CCCNc4cccc5sc6ccccc6c(=O)c45)CC3)c12
dose: 7.25 mg/kg/injection, schedule: Q01DX005 (ip), vehicle: saline with Tween-80
  survivor count: 6 of 6
dose: 14.5 mg/kg/injection, schedule: Q01DX005 (ip), vehicle: saline with Tween-80
  survivor count: 6 of 6
dose: 29.0 mg/kg/injection, schedule: Q01DX005 (ip), vehicle: saline with Tween-80
  survivor count: 6 of 6
dose: 58.0 mg/kg/injection, schedule: Q01DX005 (ip), vehicle: saline with Tween-80
  survivor count: 6 of 6

## CCCc1cc(=O)n(-c2ccc([N+](=O)[O-])cn2)c(=S)[nH]1
dose: 100.0 mg/kg/injection, schedule: Q01DX005 (ip), vehicle: Klucel (hydroxypropylcellulose) (HPC)
  survivor count: 3 of 5
[4]
  survivor count: 0 of 5

## C/C(=N\NC1=NCCN1)c1cn(C2=NCCN2)nc1C
[5]
  survivor count: 0 of 6
[6]
  survivor count: 0 of 6

## CC1=C(C)C(=O)C2=C(OCCO2)C1=O
dose: 60.0 mg/kg/injection, schedule: Q01DX005 (ip), vehicle: Klucel (hydroxypropylcellulose) (HPC)
  survivor count: 5 of 6
[2]
  survivor count: 0 of 6
[8]
  survivor count: 0 of 6

## NC(N)=N/N=C1\C(=O)N(c2cccc([N+](=O)[O-])c2)C(=O)C1C(=O)Nc1cccc([N+](=O)[O-])c1 (centres undefined)
[11]
  survivor count: 3 of 6

## CC(=O)NS(=O)(=O)c1ccc(N=NC2C(=O)N(C(=O)c3ccc(Cl)cc3)N=C2C)cc1 (centres undefined)
dose: 25.0 mg/kg/injection, schedule: Q01DX001 (ip), vehicle: saline with Tween-80
  survivor count: 6 of 6
dose: 50.0 mg/kg/injection, schedule: Q01DX001 (ip), vehicle: saline with Tween-80
  survivor count: 6 of 6
dose: 100.0 mg/kg/injection, schedule: Q01DX001 (ip), vehicle: saline with Tween-80
  survivor count: 6 of 6
dose: 200.0 mg/kg/injection, schedule: Q01DX001 (ip), vehicle: saline with Tween-80
  survivor count: 6 of 6
[11]
  survivor count: 6 of 6

## CC1=CC(C)=Nc2ccccc2N1
[3]
  survivor count: 6 of 6

## CN(C)C1=C(N(C)C)C1N(C)C
dose: 100.0 mg/kg/injection, schedule: Q04DX003 (ip), vehicle: saline
  survivor count: 5 of 6
dose: 200.0 mg/kg/injection, schedule: Q04DX003 (ip), vehicle: saline
  survivor count: 0 of 6
dose: 400.0 mg/kg/injection, schedule: Q04DX003 (ip), vehicle: saline
  survivor count: 0 of 6
